Measurements from PMC6342326.
No constants are given. Whether binding was seen depends on the method and setting. Binding seen in cells or lysates may run through a third protein. A result given as binding can be weak or reduced; the word gives no strength. Sequences can lack the tags named with a protein.

How the values were obtained:
[1] = molecular target: T1, AtVps34-Flag (Arabidopsis) (UniProt P42339); test: co-IP; Flag-affinity purification of AtVps34-Flag from the detergent-solubilized membrane fraction of N. benthamiana leaves infected with TBSV; p33 detected by Western blot with anti-p33 antibody
T1 sequence: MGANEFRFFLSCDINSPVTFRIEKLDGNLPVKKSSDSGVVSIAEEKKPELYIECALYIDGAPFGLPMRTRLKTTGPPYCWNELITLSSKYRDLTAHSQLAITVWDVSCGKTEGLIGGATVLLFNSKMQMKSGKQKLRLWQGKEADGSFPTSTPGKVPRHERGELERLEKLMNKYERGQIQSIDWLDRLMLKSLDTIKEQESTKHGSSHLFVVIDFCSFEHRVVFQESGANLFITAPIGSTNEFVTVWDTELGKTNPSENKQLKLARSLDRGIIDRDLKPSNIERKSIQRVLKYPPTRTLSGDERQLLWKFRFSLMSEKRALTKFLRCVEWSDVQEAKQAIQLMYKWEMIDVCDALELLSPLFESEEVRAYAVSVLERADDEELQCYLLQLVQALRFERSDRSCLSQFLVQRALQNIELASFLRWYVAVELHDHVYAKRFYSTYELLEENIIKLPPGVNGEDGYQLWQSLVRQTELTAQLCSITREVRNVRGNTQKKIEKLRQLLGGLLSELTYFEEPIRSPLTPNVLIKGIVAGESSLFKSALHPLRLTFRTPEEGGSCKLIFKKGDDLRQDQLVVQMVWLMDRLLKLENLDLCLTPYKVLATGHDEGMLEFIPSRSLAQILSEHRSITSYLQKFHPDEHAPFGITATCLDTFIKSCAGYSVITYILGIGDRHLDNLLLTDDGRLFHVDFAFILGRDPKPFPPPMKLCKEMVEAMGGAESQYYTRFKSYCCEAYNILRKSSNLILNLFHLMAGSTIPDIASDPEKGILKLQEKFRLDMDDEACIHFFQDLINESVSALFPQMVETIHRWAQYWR

[2] = molecular target: Flag-p33 (TBSV replication protein) (Tomato bushy stunt virus (TBSV)); test: co-IP; Flag-affinity purification of Flag-p33 from subcellular membranes of yeast, including yeast lacking the VPS34 gene; Vps21 detected with anti-His antibody
[3] = molecular target: MBP-tagged TBSV p33 replication protein (Tomato bushy stunt virus (TBSV)); test: pull-down; MBP-affinity purified MBP-p33 (from E. coli) captures 2xFlag-Vps34p from the soluble fraction of yeast CFE; anti-Flag Western blot; only the target purified

“TBSV p33 replication protein (from TBSV infection) (Tomato bushy stunt virus (TBSV))” was tested, and the binding [1] was “binds”.

B1: 6xHis-tagged Vps21 (Rab5 ortholog) (protein, UniProt P36017 1-210)
chain: MNTSVTSIKLVLLGEAAVGKSSIVLRFVSNDFAENKEPTIGAAFLTQRVTINEHTVKFEIWDTAGQERFASLAPMYYRNAQAALVVYDVTKPQSFIKARHWVKELHEQASKDIIIALVGNKIDMLQEGGERKVAREEGEKLAEEKGLLFFETSAKTGENVNDVFLGIGEKIPLKTAEEQNSASNERESNNQRVDLNAANDGTSANSACSC
For B1, the binding [2] was “binds”.

B2: 2xFlag-tagged yeast Vps34 N736K (inactive mutant) (enzyme, UniProt P22543 1-875)
chain: MSLNNITFCVSQDLDVPLKVKIKSLEGHKPLLKPSQKILNPELMLIGSNVFPSSDLIVSLQVFDKERNRNLTLPIYTPYIPFRNSRTWDYWLTLPIRIKQLTFSSHLRIILWEYNGSKQIPFFNLETSIFNLKDCTLKRGFESLKFRYDVIDHCEVVTDNKDQENLNKYFQGEFTRLPWLDEITISKLRKQRENRTWPQGTFVLNLEFPMLELPVVFIEREIMNTQMNIPTLKNNPGLSTDLREPNRNDPQIKISLGDKYHSTLKFYDPDQPNNDPIEEKYRRLERASKNANLDKQVKPDIKKRDYLNKIINYPPGTKLTAHEKGSIWKYRYYLMNNKKALTKLLQSTNLREESERVEVLELMDSWAEIDIDDALELLGSTFKNLSVRSYAVNRLKKASDKELELYLLQLVEAVCFENLSTFSDKSNSEFTIVDAVSSQKLSGDSMLLSTSHANQKLLKSISSESETSGTESLPIVISPLAEFLIRRALVNPRLGSFFYWYLKSESEDKPYLDQILSSFWSRLDKKSRNILNDQVRLINVLRECCETIKRLKDTTAKKMELLVHLLETKVRPLVKVRPIALPLDPDVLICDVCPETSKVFKSSLSPLKITFKTTLNQPYHLMFKVGDDLRQDQLVVQIISLMNELLKNENVDLKLTPYKILATGPQEGAIEFIPNDTLASILSKYHGILGYLKLHYPDENATLGVQGWVLDNFVKSCAGYCVITYILGVGDRHLDKLLVTPDGHFFHADFGYILGQDPKPFPPLMKLPPQIIEAFGGAESSNYDKFRSYCFVAYSILRRNAGLILNLFELMKTSNIPDIRIDPNGAILRVRERFNLNMSEEDATVHFQNLINDSVNALLPIVIDHLHNLAQYWRT
For B2, the binding [3] was “binds”.
